Source: publication doi:10.1101/2022.05.13.491857
Results are given in words; binding and its absence hold for the method and conditions named. Binding seen in cells or lysates may run through a third protein. Some entries that bind do so weakly or less than the wild type.

By UniProt entry, the sequences of proteins in these tests, tags left out. Where a name states a change or a piece, a line headed by the entry shows the natural chain unless it says otherwise.
UniProt Q7TMB8: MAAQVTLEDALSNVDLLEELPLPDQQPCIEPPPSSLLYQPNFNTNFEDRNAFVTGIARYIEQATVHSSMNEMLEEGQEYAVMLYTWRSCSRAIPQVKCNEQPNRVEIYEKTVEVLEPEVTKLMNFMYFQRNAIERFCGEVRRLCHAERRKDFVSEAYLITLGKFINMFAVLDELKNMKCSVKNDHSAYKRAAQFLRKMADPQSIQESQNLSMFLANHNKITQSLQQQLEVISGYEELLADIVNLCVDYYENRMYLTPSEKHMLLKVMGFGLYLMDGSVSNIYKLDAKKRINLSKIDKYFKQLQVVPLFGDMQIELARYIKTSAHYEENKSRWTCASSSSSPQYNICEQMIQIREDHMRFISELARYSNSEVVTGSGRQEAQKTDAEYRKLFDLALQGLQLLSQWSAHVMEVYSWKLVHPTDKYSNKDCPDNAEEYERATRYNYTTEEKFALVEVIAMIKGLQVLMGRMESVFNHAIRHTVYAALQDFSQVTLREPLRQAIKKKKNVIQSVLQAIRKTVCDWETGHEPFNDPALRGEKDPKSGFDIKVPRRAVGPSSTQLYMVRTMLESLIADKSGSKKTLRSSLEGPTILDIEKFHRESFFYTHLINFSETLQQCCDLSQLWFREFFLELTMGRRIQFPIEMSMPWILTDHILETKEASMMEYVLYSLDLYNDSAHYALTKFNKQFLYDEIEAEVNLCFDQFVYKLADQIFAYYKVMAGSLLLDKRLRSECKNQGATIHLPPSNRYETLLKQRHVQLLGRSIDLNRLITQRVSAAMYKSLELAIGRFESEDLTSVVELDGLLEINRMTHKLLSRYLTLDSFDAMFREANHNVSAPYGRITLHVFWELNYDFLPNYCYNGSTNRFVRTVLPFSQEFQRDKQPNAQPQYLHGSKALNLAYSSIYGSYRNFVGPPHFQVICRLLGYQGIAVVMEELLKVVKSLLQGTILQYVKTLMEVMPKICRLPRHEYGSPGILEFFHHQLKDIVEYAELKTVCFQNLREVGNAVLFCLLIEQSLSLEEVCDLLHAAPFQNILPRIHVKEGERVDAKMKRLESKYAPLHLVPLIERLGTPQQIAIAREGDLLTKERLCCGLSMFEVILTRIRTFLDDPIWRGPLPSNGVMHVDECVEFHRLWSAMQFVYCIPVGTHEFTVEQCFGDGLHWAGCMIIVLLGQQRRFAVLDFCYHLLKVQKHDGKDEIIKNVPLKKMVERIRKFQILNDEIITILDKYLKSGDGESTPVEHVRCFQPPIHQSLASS

Columns and labels:
Assay in all cases: co-IP
[1] = target: EGFP-Sra1 ΔM #2 (Sra1^Y948A/T951A) (murine) (UniProt Q7TMB8)
[2] = target: EGFP-Sra1 ΔM #1 (Sra1^Y986A/E988A) (murine) (UniProt Q7TMB8)
[3] = target: EGFP-Sra1 ΔD (Sra1^Y967A) (murine) (UniProt Q7TMB8)
EGFP-Sra1 (WT) (murine) = EGFP-Sra1 (WT) (murine) (UniProt Q7TMB8)

Measured: binding

B1: Nap1 (endogenous, B16-F1) (protein, UniProt P28660 1-1128)
chain: MSRSVLQPSQQKLAEKLTILNDRGVGMLTRLYNIKKACGDPKAKPSYLIDKNLESAVKFIVRKFPAVETRNNNQQLAQLQKEKSEILKNLALYYFTFVDVMEFKDHVCDLLNTIDVCQVFFDITVNFDLTKNYLDLTVTYTTLMILLSRIEERKAIIGLYNYAHEMTHGASDREYPRLGQMIVDYENPLKKMMEEFVPHSKSLSDALISLQMVYPRRNLSADQWRNAQLLSLISAPSTMLNPAQSDTMPCEYLSLDAMEKWIIFGFILCHGMLNTEATALNLWKLALQSSSCLSLFRDEVFHIHKAAEDLFVNIRGYNKRINDIRECKEAAVSHAGSMHRERRKFLRSALKELATVLSDQPGLLGPKALFVFMALSFARDEIIWLLRHADNMPKKSADDFIDKHIAELIFYMEELRAHVRKYGPVMQRYYVQYLSGFDAVVLNELVQNLSVCPEDESIIMSSFVNTMTSLSVKQVEDGEVFDFRGMRLDWFRLQAYTSVSKASLSLADHRELGKMMNTIIFHTKMVDSLVEMLVETSDLSIFCFYSRAFEKMFQQCLELPSQSRYSIAFPLLCTHFMSCTHELCPEERHHIGDRSLSLCNMFLDEMAKQARNLITDICTEQCTLSDQLLPKHCAKTISQAVNKKSKKQTGKKGEPEREKPGVESMRKNRLVVTNLDKLHTALSELCFSINYVPNMAVWEHTFTPREYLTSHLEIRFTKSIVGMTMYNQATQEIAKPSELLTSVRAYMTVLQSIENYVQIDITRVFNNVLLQQTQHLDSHGEPTITSLYTNWYLETLLRQVSNGHIAYFPAMKAFVNLPTENELTFNAEEYSDISEMRSLSELLGPYGMKFLSESLMWHISSQVAELKKLVVENVDVLTQMRTSFDKPDQMAALFKRLSSVDSVLKRMTIIGVILSFRSLAQEALRDVLSYHIPFLVSSIEDFKDHIPRETDMKVAMNVYELSSAAGLPCEIDPALVVALSSQKSENISPEEEYKIACLLMVFVAVSLPTLASNVMSQYSPAIEGHCNNIHCLAKAINQIAAALFTIHKGSIEDRLKEFLALASSSLLKIGQETDKTTTRNRESVYLLLDMIVQESPFLTMDLLESCFPYVLLRNAYHAVYKQSVTSSA
binds: [1] | [2] | [3] | EGFP-Sra1 (WT) (murine)
